PubChem BioAssay AID652243, Drosophila RNAi Screening Center | 2013
In all, the deposit lists about 24,000 reagents; below is an unselected part of those with a known target gene and a result. Of all reagents, 246 (1%) are marked active. 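Plates not normalised; calls are printed but the firefly/Renilla ratio behind them is not deposited; fold cut for lowering reported inconsistently.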 Raw values are not corrected between plates. No sequences are given here. Not stated in the record: the amount of reagent.

Assay: 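Knock-downs that decrease or increase androgen receptor reporter signal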 (primary screen)
Cells: Drosophila S2R+ cells
Knock-down reagent: long dsRNA against Drosophila genes
Timing: 72 h (48 h, then 24 h hormone)
Challenge: synthetic androgen R1881 at 10 nM for 24 h
Detection: 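Firefly light from an androgen-responsive reporter and Renilla control light per well, raw and unnormalised, for each of two replicates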
Reading the numbers: firefly reporter light: higher = more light from androgen-responsive reporter; Renilla control light: higher = more constitutive control signal (cell number, transfection)
Active means: 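Hit when the log firefly-to-Renilla ratio dropped or increased by a fixed fold versus the mean of GFP or LacZ controls across duplicate plates; lowering cut given as 1.5 and as 3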
Calls: active = hit: reporter lowered or raised; inactive = no hit

Xpc [DRSC07654] — firefly reporter light, replicate 1: 1.79e6; firefly reporter light, replicate 2: 1.59e6; Renilla control light, replicate 1: 2.36e6; Renilla control light, replicate 2: 2.32e6; activity call: inactive
CG42810 [DRSC02533] — firefly reporter light, replicate 1: 2.25e5; firefly reporter light, replicate 2: 2.49e5; Renilla control light, replicate 1: 9.04e5; Renilla control light, replicate 2: 1.18e6; activity call: inactive
CG32533 [DRSC19443] — firefly reporter light, replicate 1: 98685; firefly reporter light, replicate 2: 1.04e5; Renilla control light, replicate 1: 4.05e5; Renilla control light, replicate 2: 4.93e5; activity call: inactive
CG32533 [DRSC19553] — firefly reporter light, replicate 1: 1.08e5; firefly reporter light, replicate 2: 1.05e5; Renilla control light, replicate 1: 4.05e5; Renilla control light, replicate 2: 2.95e5; activity call: inactive
CG32533 [DRSC24560] — firefly reporter light, replicate 1: 6.06e5; firefly reporter light, replicate 2: 6.68e5; Renilla control light, replicate 1: 9.50e5; Renilla control light, replicate 2: 6.78e5; activity call: inactive
CG32533 [DRSC39093] — firefly reporter light, replicate 1: 3.97e5; firefly reporter light, replicate 2: 3.34e5; Renilla control light, replicate 1: 1.59e6; Renilla control light, replicate 2: 1.35e6; activity call: active
MED19 [DRSC10516] — firefly reporter light, replicate 1: 11384; firefly reporter light, replicate 2: 4593; Renilla control light, replicate 1: 4.65e5; Renilla control light, replicate 2: 2.15e5; activity call: active
MED19 [DRSC23458] — firefly reporter light, replicate 1: 4.12e5; firefly reporter light, replicate 2: 4.08e5; Renilla control light, replicate 1: 3.91e5; Renilla control light, replicate 2: 4.74e5; activity call: inactive
MED19 [DRSC39059] — firefly reporter light, replicate 1: 2.28e5; firefly reporter light, replicate 2: 2.23e5; Renilla control light, replicate 1: 1.08e6; Renilla control light, replicate 2: 9.59e5; activity call: active
geminin [DRSC04984] — firefly reporter light, replicate 1: 1.00e5; firefly reporter light, replicate 2: 1.07e5; Renilla control light, replicate 1: 1.70e6; Renilla control light, replicate 2: 1.33e6; activity call: inactive
geminin [DRSC29794] — firefly reporter light, replicate 1: 1.55e5; firefly reporter light, replicate 2: 1.68e5; Renilla control light, replicate 1: 6.81e5; Renilla control light, replicate 2: 7.13e5; activity call: inactive
TSG101 [DRSC11098] — firefly reporter light, replicate 1: 2.54e5; firefly reporter light, replicate 2: 2.01e5; Renilla control light, replicate 1: 2.49e6; Renilla control light, replicate 2: 1.98e6; activity call: inactive
lectin-29Ca [DRSC02635] — firefly reporter light, replicate 1: 2.40e5; firefly reporter light, replicate 2: 2.09e5; Renilla control light, replicate 1: 2.31e6; Renilla control light, replicate 2: 1.36e6; activity call: inactive
Cap-D2 [DRSC15401] — firefly reporter light, replicate 1: 86808; firefly reporter light, replicate 2: 68366; Renilla control light, replicate 1: 9.24e5; Renilla control light, replicate 2: 5.52e5; activity call: inactive
Cap-D2 [DRSC24096] — firefly reporter light, replicate 1: 7.21e5; firefly reporter light, replicate 2: 5.79e5; Renilla control light, replicate 1: 7.85e5; Renilla control light, replicate 2: 9.23e5; activity call: inactive
CG16868 [DRSC06633] — firefly reporter light, replicate 1: 1.62e6; firefly reporter light, replicate 2: 7.61e5; Renilla control light, replicate 1: 2.06e6; Renilla control light, replicate 2: 9.60e5; activity call: inactive
VhaM9.7-d [DRSC15028] — firefly reporter light, replicate 1: 2.24e5; firefly reporter light, replicate 2: 2.11e5; Renilla control light, replicate 1: 2.00e6; Renilla control light, replicate 2: 2.00e6; activity call: inactive
Dbp73D [DRSC11142] — firefly reporter light, replicate 1: 18014; firefly reporter light, replicate 2: 14253; Renilla control light, replicate 1: 3.35e5; Renilla control light, replicate 2: 2.84e5; activity call: active
Mccc2 [DRSC04987] — firefly reporter light, replicate 1: 3.46e5; firefly reporter light, replicate 2: 2.86e5; Renilla control light, replicate 1: 1.55e6; Renilla control light, replicate 2: 1.90e6; activity call: inactive
AlaRS-m [DRSC09660] — firefly reporter light, replicate 1: 9.09e5; firefly reporter light, replicate 2: 9.01e5; Renilla control light, replicate 1: 1.16e6; Renilla control light, replicate 2: 1.18e6; activity call: inactive
AlaRS-m [DRSC28250] — firefly reporter light, replicate 1: 4.00e5; firefly reporter light, replicate 2: 8.29e5; Renilla control light, replicate 1: 1.56e6; Renilla control light, replicate 2: 2.09e6; activity call: inactive
CG7991 [DRSC08609] — firefly reporter light, replicate 1: 92789; firefly reporter light, replicate 2: 94934; Renilla control light, replicate 1: 9.97e5; Renilla control light, replicate 2: 1.04e6; activity call: inactive
CG7991 [DRSC29595] — firefly reporter light, replicate 1: 6.65e5; firefly reporter light, replicate 2: 6.55e5; Renilla control light, replicate 1: 9.45e5; Renilla control light, replicate 2: 9.45e5; activity call: inactive
CG10237 [DRSC02029] — firefly reporter light, replicate 1: 7.88e5; firefly reporter light, replicate 2: 7.86e5; Renilla control light, replicate 1: 1.39e6; Renilla control light, replicate 2: 2.27e6; activity call: inactive
CG5934 [DRSC15922] — firefly reporter light, replicate 1: 1.73e5; firefly reporter light, replicate 2: 2.00e5; Renilla control light, replicate 1: 1.91e6; Renilla control light, replicate 2: 2.89e6; activity call: inactive
CG5934 [DRSC27431] — firefly reporter light, replicate 1: 3.09e5; firefly reporter light, replicate 2: 3.07e5; Renilla control light, replicate 1: 7.84e5; Renilla control light, replicate 2: 7.27e5; activity call: inactive
mal [DRSC20581] — firefly reporter light, replicate 1: 82602; firefly reporter light, replicate 2: 69044; Renilla control light, replicate 1: 5.78e5; Renilla control light, replicate 2: 6.49e5; activity call: inactive
mal [DRSC27085] — firefly reporter light, replicate 1: 4.55e5; firefly reporter light, replicate 2: 3.13e5; Renilla control light, replicate 1: 9.11e5; Renilla control light, replicate 2: 7.89e5; activity call: inactive

4 neighbouring entries already listed:
CG7991 [DRSC29595] — firefly reporter light, replicate 1: 6.65e5; firefly reporter light, replicate 2: 6.55e5; Renilla control light, replicate 1: 9.45e5; Renilla control light, replicate 2: 9.45e5; activity call: inactive
CG10237 [DRSC02029] — firefly reporter light, replicate 1: 7.88e5; firefly reporter light, replicate 2: 7.86e5; Renilla control light, replicate 1: 1.39e6; Renilla control light, replicate 2: 2.27e6; activity call: inactive
CG5934 [DRSC15922] — firefly reporter light, replicate 1: 1.73e5; firefly reporter light, replicate 2: 2.00e5; Renilla control light, replicate 1: 1.91e6; Renilla control light, replicate 2: 2.89e6; activity call: inactive
CG5934 [DRSC27431] — firefly reporter light, replicate 1: 3.09e5; firefly reporter light, replicate 2: 3.07e5; Renilla control light, replicate 1: 7.84e5; Renilla control light, replicate 2: 7.27e5; activity call: inactive
